This is an account of results in PMC9530460.

Sequences of proteins named here, by UniProt entry; tags and fusion partners are left off. A change or cut given only in a name is not applied to a line headed by its entry.
UniProt P05067: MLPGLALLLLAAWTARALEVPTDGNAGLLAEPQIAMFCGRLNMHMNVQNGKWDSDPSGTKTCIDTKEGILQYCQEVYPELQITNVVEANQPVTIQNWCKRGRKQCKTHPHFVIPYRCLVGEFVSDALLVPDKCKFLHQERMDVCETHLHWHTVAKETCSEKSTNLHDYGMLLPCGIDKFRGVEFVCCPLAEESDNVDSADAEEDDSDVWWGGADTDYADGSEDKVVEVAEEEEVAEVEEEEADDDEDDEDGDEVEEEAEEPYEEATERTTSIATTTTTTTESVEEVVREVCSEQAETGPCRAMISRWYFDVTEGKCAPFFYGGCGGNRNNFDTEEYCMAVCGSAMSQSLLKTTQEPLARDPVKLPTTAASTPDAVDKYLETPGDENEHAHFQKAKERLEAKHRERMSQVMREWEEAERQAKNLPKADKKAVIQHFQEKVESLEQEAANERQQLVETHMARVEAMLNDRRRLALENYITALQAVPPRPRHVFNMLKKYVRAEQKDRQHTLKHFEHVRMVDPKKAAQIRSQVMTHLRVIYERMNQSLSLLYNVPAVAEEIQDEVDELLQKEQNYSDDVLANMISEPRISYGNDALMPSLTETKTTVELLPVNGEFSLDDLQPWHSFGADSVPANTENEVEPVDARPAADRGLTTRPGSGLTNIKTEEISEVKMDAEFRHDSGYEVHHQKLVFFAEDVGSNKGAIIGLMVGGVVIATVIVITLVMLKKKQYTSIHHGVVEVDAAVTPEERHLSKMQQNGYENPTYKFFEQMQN

Series [1] has as its target amyloid-beta peptide 1-42 (Abeta1-42) (UniProt P05067). Description: pull-down on graphene oxide with SALDI-TOF MS read-out. The settings on record: aptamer non-covalently bound to GO, low peak (S/N 17), attributed to loss of aptamer-captured peptide on washing; 5'-thiol, coupled to PEGylated graphene oxide via HS-PEG-NH2 (disulfide); Apt-GO prepared in PBS pH 7.4 (aptamer heated 90 C, cooled to room temperature), redispersed in ultrapure water; protein in an extract; residues 672-713; label: 3'-fluorescein (for quantifying immobilization); single-stranded DNA.

For series [2] the target is unchanged. Description: pull-down on aptamer-conjugated graphene oxide with SALDI-TOF MS read-out. The settings on record: aptamer covalently bound to GO, AD cell model, bare GO also adsorbs some peptide; 5'-thiol, coupled to PEGylated graphene oxide via HS-PEG-NH2 (disulfide); Apt-GO prepared in PBS pH 7.4 (aptamer heated 90 C, cooled to room temperature), redispersed in ultrapure water; protein in an extract; residues 672-713; label: 3'-fluorescein (for quantifying immobilization); single-stranded DNA.

Construct, isoform or probe ends are uncertain for at least one entry. Where cells or extracts were used, other partners may take part. For some assays here: The comparison behind a weaker result is the experiment's own reference, which may not be listed here.

As to “AGTCTAGGATTCGGCGTGGGTTAATTTTTTGCTGCCTGTGGTGTTGGGGCGGGTGCG [Abeta1-42 aptamer]”, the values for the binding result in series [1] and in series [2] were “binds more weakly” and “binds”, respectively.
